Measurements: patent publication US20160298152A1 (CALIFORNIA INSTITUTE OF TECHNOLOGY, published 2016)
No constants are given. Whether binding was seen depends on the method and setting. In cells and extracts the contact can be indirect. Some binding calls cover weakened binding; strength is not graded here.

Target: T1, TmTrpB (wild-type β-subunit of tryptophan synthase from Thermotoga maritima) (Thermotoga maritima) (UniProt P50909)
T1 sequence: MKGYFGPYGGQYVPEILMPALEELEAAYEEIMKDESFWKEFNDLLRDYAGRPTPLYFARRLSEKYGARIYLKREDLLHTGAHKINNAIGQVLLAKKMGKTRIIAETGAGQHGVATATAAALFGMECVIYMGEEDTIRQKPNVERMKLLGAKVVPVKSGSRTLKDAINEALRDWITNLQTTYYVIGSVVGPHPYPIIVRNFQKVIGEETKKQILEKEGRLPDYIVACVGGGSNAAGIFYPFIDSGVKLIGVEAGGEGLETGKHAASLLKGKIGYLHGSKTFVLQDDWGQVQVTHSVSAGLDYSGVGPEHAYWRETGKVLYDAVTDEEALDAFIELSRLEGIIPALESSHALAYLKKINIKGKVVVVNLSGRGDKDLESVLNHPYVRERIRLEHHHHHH
Assay: co-purification of untagged TmTrpA with TmTrpB on Ni chromatography; analytical size exclusion

B1: TmTrpA (α-subunit of tryptophan synthase from Thermotoga maritima) (enzyme, UniProt P50908 1-239, looked up)
chain: MKGFIAYIPAGFPDLETTRKILIALNELGITGVEIGVPFSDPVADGPVIQLAHSVALRNGVTIKKILEMLSEISVDYDLYLMSYLNPIVNYPEGKEKLLDELKKLGVKGLIIPDLPLREVKNVDIAYPIVPFVAPNTKDEEIDLINSVQAPFVYYISRYGVTGEREDLPFADHIKRVKERIKLPLFVGFGISRHEQVKKVWEIADGVIVGSALVRIMEENPKDEIPRKVVEKVKELLGK
  binding: binds
